Source: paper PMC7819943, “Rice protein-binding microarrays: a tool to detect cis-acting elements near promoter regions in rice”
This is one part of the list.

Sequences of proteins named here, by UniProt entry; tags and fusion partners are left off.
UniProt Q0JBA9, entry or part of it: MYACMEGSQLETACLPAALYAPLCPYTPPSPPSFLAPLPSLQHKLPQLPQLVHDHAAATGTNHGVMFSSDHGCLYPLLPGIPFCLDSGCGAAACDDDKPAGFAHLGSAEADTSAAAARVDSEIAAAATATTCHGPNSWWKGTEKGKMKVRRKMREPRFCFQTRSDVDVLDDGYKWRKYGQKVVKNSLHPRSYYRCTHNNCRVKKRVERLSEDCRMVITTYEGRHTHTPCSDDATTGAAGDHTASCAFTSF

Target: OsWRKY34 (Oryza sativa, UniProt Q0JBA9 1-250)
Experiment: protein-binding microarray (RPBM); PBS, 2% BSA, 51.3 ng/ul salmon testes DNA, 50 uM zinc acetate, 200 nM TF, 25 C, 1 h; high values mean tight binding
Settings: protein: recombinant; tags: N-terminal polyhistidine and DsRed monomer fusion (pET32a); label: CyDye5-dUTP incorporated in the synthesized complementary strand; 3' TTTTT single-stranded linker to array surface; dsDNA, one strand shown
In short: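 Binding signal is defined as the fluorescence intensity of each feature in arbitrary units, read on an Axon 4000B scanner. Transcription factors with N-terminal polyhistidine and DsRed fusions came from E. coli BL21-CodonPlus and were purified on Ni–NTA. They were incubated at 200 nM for 1 h at 25 °C on a custom Agilent array that had been made double-stranded with Cy5-dUTP, with 50 µM zinc acetate present, and the array was washed.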

Row | Sequence | binding signal
1 | AAGGTGGGGTCATCATAAATATTTTTTAAGTGAAAATTTTCGGAGTCACCTAGTGCAG | 9840 fluorescence intensity (a.u.)
2 | CCAAGCACAGGTACTATTTGTGTTTGTTGACTTTATACTTCGGAGTCACCTAGTGCAG | 8690 fluorescence intensity (a.u.)
3 | ACCAACCACTGAATGTTTGTTTTGCTTGTTTCATTTTTTTCGGAGTCACCTAGTGCAG | 9980 fluorescence intensity (a.u.)
4 | TTCCTTTTTTTACGTGGCAACAGTTAGGGGTGGGCATTCGCGGAGTCACCTAGTGCAG | 18400 fluorescence intensity (a.u.)
5 | GTTAAACTAATTTGAATTTGTTAGTACAGTTTGCATTTCACGGAGTCACCTAGTGCAG | 8160 fluorescence intensity (a.u.)
6 | TCTGGTTTTGTGGTTTTGTGGTTAGGGGATGATTTTGTAACGGAGTCACCTAGTGCAG | 12800 fluorescence intensity (a.u.)
7 | GGACTGCTCCACCATTTTTAGTCCCGGTTGGTAATACCAACGGAGTCACCTAGTGCAG | 8570 fluorescence intensity (a.u.)
8 | ATTAATTGTTGTACATTATAAATTTTCCCTTGCATGTTTCCGGAGTCACCTAGTGCAG | 10800 fluorescence intensity (a.u.)
9 | GCTAGCCGATTGGTTTATACTGGACTATATTATTGTTATACGGAGTCACCTAGTGCAG | 9380 fluorescence intensity (a.u.)
10 | GAATTACCATTTGTGCATATAATTCTGGCGGGGTAGTTTTCGGAGTCACCTAGTGCAG | 11000 fluorescence intensity (a.u.)
11 | GCACACATACACATACTGACAATGATGAGTTGATGACACACGGAGTCACCTAGTGCAG | 8500 fluorescence intensity (a.u.)
12 | TGTGCCTATGGAATACTGTTAAGTGGTTTTTCTATTTAATCGGAGTCACCTAGTGCAG | 8540 fluorescence intensity (a.u.)
13 | TTAGATTTCTTCACCTTCTTGGAGCTCGCGAGCTCGTCGGCGGAGTCACCTAGTGCAG | 9670 fluorescence intensity (a.u.)
14 | TTCTTTTTTTTTTCTTCCATTCCCCTGGCAAATGTCTCCACGGAGTCACCTAGTGCAG | 8340 fluorescence intensity (a.u.)
15 | AGAGGAGGAAGGTGGGAGCAGCTAGATTGGAAGTGGGCAACGGAGTCACCTAGTGCAG | 8360 fluorescence intensity (a.u.)
16 | CCATGCCCTACCTGCCGCGCGCCTAGGGTTTCGCGAGGATCGGAGTCACCTAGTGCAG | 8030 fluorescence intensity (a.u.)
17 | CATAGCCCGTCACCACCACAGATATGCAGTGCACACACATCGGAGTCACCTAGTGCAG | 8050 fluorescence intensity (a.u.)
18 | ACCTGGTCCCACTTGTCATACACACAGTACGTCTTGGAATCGGAGTCACCTAGTGCAG | 9100 fluorescence intensity (a.u.)
19 | GCCTCTTTTTTGTCGCTCTCACTGTCTCACACCTACACGTCGGAGTCACCTAGTGCAG | 16400 fluorescence intensity (a.u.)
20 | TTAATTTCTGGTCCTATTTGTCATATACACATCGCGCCTTCGGAGTCACCTAGTGCAG | 8770 fluorescence intensity (a.u.)
21 | CCATAGTTAGCTTCATTATTTTACTGCTAGCTTCATTTATCGGAGTCACCTAGTGCAG | 11700 fluorescence intensity (a.u.)
22 | TCGTCGTAGCCACCACACCGCCCACACACCCACACCGCCGCGGAGTCACCTAGTGCAG | 9580 fluorescence intensity (a.u.)
23 | TTGCACCCTTTTGTTTGCGCTTGAATTGACTTCTTTTTTGCGGAGTCACCTAGTGCAG | 8200 fluorescence intensity (a.u.)
24 | GTATTCCTACTTGAACTCTTCTTTTACTTTATTTTTCTAACGGAGTCACCTAGTGCAG | 10600 fluorescence intensity (a.u.)
25 | TATCATGTGTTCGTATGTCGTCATCTGGCATGTCTTAGGTCGGAGTCACCTAGTGCAG | 10500 fluorescence intensity (a.u.)
26 | CGCCGGCCCTTTTACTTCCCTTTGTTTTAAGGCCCACAACCGGAGTCACCTAGTGCAG | 9130 fluorescence intensity (a.u.)
27 | AGCAGCACACTATCCATTCCAACTTCGAAGCGCTCACTCTCGGAGTCACCTAGTGCAG | 8210 fluorescence intensity (a.u.)

Excerpt, entries 6 to 9
Row | Sequence | binding signal
6 | TCTGGTTTTGTGGTTTTGTGGTTAGGGGATGATTTTGTAACGGAGTCACCTAGTGCAG | 12800 fluorescence intensity (a.u.)
7 | GGACTGCTCCACCATTTTTAGTCCCGGTTGGTAATACCAACGGAGTCACCTAGTGCAG | 8570 fluorescence intensity (a.u.)
8 | ATTAATTGTTGTACATTATAAATTTTCCCTTGCATGTTTCCGGAGTCACCTAGTGCAG | 10800 fluorescence intensity (a.u.)
9 | GCTAGCCGATTGGTTTATACTGGACTATATTATTGTTATACGGAGTCACCTAGTGCAG | 9380 fluorescence intensity (a.u.)

Later entries:

Row | Sequence | binding signal
28 | GGTTGTCTGATTAATTCCTCTTCTCCGACCGGCTCGCTCACGGAGTCACCTAGTGCAG | 8490 fluorescence intensity (a.u.)
29 | CCAACCATGTCGCTATCTTCCATTCGTCTCCACGTCCAGACGGAGTCACCTAGTGCAG | 8280 fluorescence intensity (a.u.)
30 | TGCAAAAAGACGGTCACACATCCTTTTCTTCCCCGTGAACCGGAGTCACCTAGTGCAG | 8850 fluorescence intensity (a.u.)
31 | CCACTCGCTCTCCGTTCACCACTCCAAACGCGTAGCGCTACGGAGTCACCTAGTGCAG | 10700 fluorescence intensity (a.u.)
32 | GCACAAGTTGCAAATTACTACTACTAGTTCGCCAGTCACACGGAGTCACCTAGTGCAG | 8110 fluorescence intensity (a.u.)
33 | CACCACGATTTGTTCCTTCCATGCCGCGGTTTCTTCTCTTCGGAGTCACCTAGTGCAG | 9150 fluorescence intensity (a.u.)
34 | TTCTCGGACATGCCAACACCATAGGCCCACCGGCCCGCATCGGAGTCACCTAGTGCAG | 8650 fluorescence intensity (a.u.)
35 | AGCTCATCTAGTAGCCGCTTCTTGCATTCTTCTTCTTCTCCGGAGTCACCTAGTGCAG | 11700 fluorescence intensity (a.u.)
36 | TTGGCCGCTTCACCTGAATCTAATCTTTTGTTAATTAACCCGGAGTCACCTAGTGCAG | 8070 fluorescence intensity (a.u.)
37 | TCTGGGTGAATACTGCTAGTTTTCTATGGGGAGGTGGGGACGGAGTCACCTAGTGCAG | 12600 fluorescence intensity (a.u.)
38 | TGAGACTGGGACTGTGGTTGAGGGGTTATTTGGCTAGTTCCGGAGTCACCTAGTGCAG | 10400 fluorescence intensity (a.u.)
39 | TGTGCTACCTGTAGCTGCAGGAATGACCTTTGACTTTCTTCGGAGTCACCTAGTGCAG | 10400 fluorescence intensity (a.u.)
40 | GGTCTTTAGGTTAAGGGTGGTTGTGCCTTATATTTTGGAACGGAGTCACCTAGTGCAG | 8580 fluorescence intensity (a.u.)
41 | TCCGCATCCCCATCGTTCGCACACCCTGTTTTTTTTTAGCCGGAGTCACCTAGTGCAG | 11200 fluorescence intensity (a.u.)
42 | GAGTCGGACCATCGTTGTCTCGTTCTCCTCTTCTTCCGTCCGGAGTCACCTAGTGCAG | 8380 fluorescence intensity (a.u.)
43 | ATTTTGAGTTTTTACTTGTAACGTTTGACCACTTGTCTTACGGAGTCACCTAGTGCAG | 8620 fluorescence intensity (a.u.)
44 | GCTAGACACAGGCAACCAAACACACCCTAACACTCACTGTCGGAGTCACCTAGTGCAG | 9290 fluorescence intensity (a.u.)
45 | CACACGTCGGTGACAATCTCGTTTCTTCTTCTTCTCCGCCCGGAGTCACCTAGTGCAG | 8420 fluorescence intensity (a.u.)
46 | CATCGCTGGTTTAATGGATCTTTTCTCACAATCCGTTAGTCGGAGTCACCTAGTGCAG | 8310 fluorescence intensity (a.u.)
47 | CCTCCGCGGCCGTCACCGATCTCATCCGCCGCCGACGATGCGGAGTCACCTAGTGCAG | 8090 fluorescence intensity (a.u.)
48 | TGGCATAATTACATGCAAGCGTGAATCTTTTGTTCTATCTCGGAGTCACCTAGTGCAG | 8230 fluorescence intensity (a.u.)
49 | TTGAATCGATTCCCTTGCCTCGCCTCGCTGTTGTCGCCGACGGAGTCACCTAGTGCAG | 8280 fluorescence intensity (a.u.)
50 | CTCCTGCCGCCATCCGTCGCGTCTCCGACCATCGTCACCACGGAGTCACCTAGTGCAG | 14700 fluorescence intensity (a.u.)
51 | TGGTGTTACTTTGAATTTGAGGATTTGGGGTTTGATTTAGCGGAGTCACCTAGTGCAG | 9690 fluorescence intensity (a.u.)
52 | ATTTTCTGCTGTTGCTAGCCTTTTCTACACATTGCACCATCGGAGTCACCTAGTGCAG | 8920 fluorescence intensity (a.u.)
53 | CCGACCCACCTCCGCCTCCGAGCCACCGTCCTCACGCACGCGGAGTCACCTAGTGCAG | 12000 fluorescence intensity (a.u.)
54 | CTTTTGGTCTTCCCTTTCTTTTCTTCTTCTTCTTCTTCTTCGGAGTCACCTAGTGCAG | 10400 fluorescence intensity (a.u.)
